Test results published in PubChem BioAssay AID662 (National Center for Advancing Translational Sciences (NCATS), 2007).
The list shows a part of the results. The main result of the screen is listed elsewhere. These columns were measured beside it and carry no call. The list favours compounds with an active or inconclusive main result. The note in brackets gives the kind of curve behind each potency; many fits are weak.

assay: Cell signaling CRE-BLA (Fsk stim); conditions: CHO CRE-bla reporter (cAMP response element driving beta-lactamase), forskolin EC10, beta-lactamase ratio; measured here: 460 nm blue channel
Method in brief: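 Modulation of forskolin signalling: compounds in titration series added with EC10 NKH 477 to CHO cells carrying a CRE-driven beta-lactamase reporter, 3 h, 37C. CCF4 FRET ratio (460/530 nm, ex 405 nm) gives %activity and AC50.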

Question: Which AC50 does the source give for `CSc1ccccc1NC(=O)Cn1c(-c2cscn2)nc2ccccc21` here?
Answer: The AC50 was 25.1 µM [rising, partial curve].

Question: With `CN1C(=O)c2c(sc3c2CC(C)(C)SC3)N2CCN=C12` as the compound, how does the AC50 read?
Answer: Its AC50 is 5.01 µM [falling, single point].

Question: Which AC50 does the source give for `COc1ccccc1CNc1nc(-c2cccnc2)nc2ccccc12` here?
Answer: The AC50 was 12.6 µM [rising, partial curve].

Question: For `CN1CSC2=C(C#N)C(c3cccc(OCc4ccccc4)c3)CC(=O)N2C1` (stereo not drawn), which AC50 is on record?
Answer: The AC50 was 12.6 µM [rising, partial curve].

Question: For `c1ccc(Cn2ncc3c(N4CCCCC4)ncnc32)cc1`, which AC50 is on record?
Answer: Its AC50 is 12.6 µM [rising, partial curve].

Question: Which AC50 does the source give for `CCn1c(Cn2nnc(-c3ccccc3)n2)nnc1SCc1ccc(Cl)c(Cl)c1` here?
Answer: Its AC50 is 0.00398 µM [falling, full curve, poor fit].

Question: With `Nc1ccccc1O` as the compound, how does the AC50 read?
Answer: The AC50 was 15.8 µM [falling, partial curve, poor fit].

Question: For `O=c1cc(C(F)(F)F)c2sc(N3CCCCC3)nc2[nH]1`, which AC50 is on record?
Answer: The AC50 was 12.6 µM [rising, single point].

Question: Which AC50 does the source give for `O=C(c1oc2ccccc2c1CSCc1ccccc1)N1CCN(c2ncccn2)CC1` here?
Answer: The AC50 was 15.8 µM [falling, single point].

Question: Which AC50 does the source give for `CCN(CC)S(=O)(=O)N1CCC(C(=O)NC2CCCC2)CC1` here?
Answer: Its AC50 is 5.01 µM [falling, single point].

Question: With `Cc1cc(C)n2nc(SCC(=O)c3ccc[nH]3)nc2n1` as the compound, how does the AC50 read?
Answer: The AC50 was 12.6 µM [rising, single point].

Question: Which AC50 does the source give for `CC(C)n1nc(C(=O)Nc2nc3ccc(S(C)(=O)=O)cc3s2)c2ccccc2c1=O` here?
Answer: Its AC50 is 12.6 µM [rising, partial curve, poor fit].

Question: Which AC50 does the source give for `COc1cc(NC(=O)c2cc(OC)c(OC)c(OC)c2)c(OC)cc1NC(=O)CN1CCCCC1` here?
Answer: The AC50 was 10 µM [rising, partial curve].

Question: Which AC50 does the source give for `OC(Cn1cncn1)c1ccc(Cl)cc1` (stereo not drawn) here?
Answer: Its AC50 is 0.00316 µM [falling, full curve, poor fit].

Question: Which AC50 does the source give for `Cc1cccc(-n2c(CCN3C(=O)c4ccccc4C3=O)nc3ccccc3c2=O)n1` here?
Answer: The AC50 was 7.94 µM [rising, partial curve].

Question: Which AC50 does the source give for `COCCCN(C(=O)c1ccco1)c1nc(-c2cc(OC)ccc2OC)cs1` here?
Answer: The AC50 was 6.31 µM [rising, partial curve].

Question: For `CC(C)Cc1cc(C(=O)Nc2sc3c(c2C#N)CCCC3)no1`, which AC50 is on record?
Answer: The AC50 was 2.51 µM [rising, full curve, poor fit].

Question: With `COCC(C)n1c(C)cc(C(=O)COC(=O)c2c(C)nn(-c3ccccc3)c2C)c1C` (stereo not drawn) as the compound, how does the AC50 read?
Answer: Its AC50 is 12.6 µM [rising, partial curve].

Question: Which AC50 does the source give for `Cn1cnc(S(=O)(=O)N2CCc3ccccc32)c1` here?
Answer: Its AC50 is 0.0501 µM [falling, partial curve, poor fit].

Question: With `N#CCCn1c(=O)cnc2cnc(Oc3ccccc3)nc21` as the compound, how does the AC50 read?
Answer: The AC50 was 1.26 µM [rising, partial curve].

Question: For `Cc1csc(C(C#N)C(=O)c2ccncc2)n1` (stereo not drawn), which AC50 is on record?
Answer: Its AC50 is 1 µM [falling, single point].

Question: Which AC50 does the source give for `CCN1CCN(C(c2cccs2)C(C)NC(=O)CC(C)C)CC1` (stereo not drawn) here?
Answer: Its AC50 is 25.1 µM [rising, single point].

Question: Which AC50 does the source give for `Cn1c(CSc2nc3ccccc3s2)nc2ccccc21` here?
Answer: The AC50 was 10 µM [rising, partial curve].

Question: Which AC50 does the source give for `CCCCCCC(=O)N(O)C1CC(=O)N(c2ccc(Br)cc2)C1=O` (stereo not drawn) here?
Answer: Its AC50 is 0.158 µM [falling, full curve].

Question: For `Cc1ccc(Cn2c(=O)c3ccccc3n3c(SCC(=O)N4CCCCC4C)nnc23)cc1` (stereo not drawn), which AC50 is on record?
Answer: The AC50 was 10 µM [rising, partial curve].

Question: For `COc1ccccc1-c1nc(C#N)c(NCc2ccc(F)cc2)o1`, which AC50 is on record?
Answer: The AC50 was 10 µM [rising, partial curve].

Question: For `O=C(NCCc1ccc2c(c1)OCO2)C1CCN(S(=O)(=O)c2ccc(Cl)cc2)CC1`, which AC50 is on record?
Answer: Its AC50 is 0.00398 µM [falling, full curve, poor fit].

Question: Which AC50 does the source give for `Cc1ccc(N(C(=O)CNC(=O)c2ccco2)C(C(=O)NCC2CCCO2)c2ccccc2)cc1` (stereo not drawn) here?
Answer: The AC50 was 3.16 µM [rising, single point].

Question: Which AC50 does the source give for `CCc1ccc2oc(=O)cc(CN3CCC(C)CC3)c2c1` here?
Answer: Its AC50 is 15.8 µM [rising, partial curve].

Question: Which AC50 does the source give for `N#Cc1cnc(SCC(=O)c2ccccc2)nc1N` here?
Answer: The AC50 was 20 µM [rising, single point].

Question: For `CCOC(=O)N1CCN(Cc2nc3c(c(=O)[nH]c(=O)n3C)n2Cc2cc(C)ccc2C)CC1`, which AC50 is on record?
Answer: The AC50 was 2 µM [rising, partial curve].

Question: With `COc1ccc(-c2cc3nc(-c4ccccc4)cc(N4CCC5(CC4)OCCO5)n3n2)cc1` as the compound, how does the AC50 read?
Answer: Its AC50 is 10 µM [rising, partial curve].

Question: For `COc1ccc(S(=O)(=O)N2CCN(C(=O)c3cccs3)CC2)cc1OC`, which AC50 is on record?
Answer: Its AC50 is 12.6 µM [rising, single point].

Question: Which AC50 does the source give for `COC(=O)c1cnn2c(C)c(Cc3cccc(F)c3)c(C)nc12` here?
Answer: Its AC50 is 10 µM [rising, partial curve].

Question: For `CNC(=O)c1cc2cc(OC)ccc2oc1=N`, which AC50 is on record?
Answer: Its AC50 is 6.31 µM [rising, partial curve].

Question: With `CCCCCn1c(SCc2ccncc2)nc2cc(C(=O)NCc3ccco3)ccc2c1=O` as the compound, how does the AC50 read?
Answer: The AC50 was 2.51 µM [rising, single point].

Question: With `COc1ccc(S(=O)(=O)Cc2ccc(C(=O)N3CCN(c4ncccn4)CC3)o2)cc1` as the compound, how does the AC50 read?
Answer: Its AC50 is 12.6 µM [rising, single point].

Question: With `COc1ncc2nc(-c3ccc(F)cc3)c(=O)n(CCc3ccccc3)c2n1` as the compound, how does the AC50 read?
Answer: Its AC50 is 12.6 µM [rising, partial curve].

Question: For `O=c1c(-c2ccc(F)c(F)c2)nc2cncnc2n1C1CC1`, which AC50 is on record?
Answer: The AC50 was 3.16 µM [falling, single point].

Question: For `Cc1cccc(CNc2nc(-c3cccc(NS(C)(=O)=O)c3)nc3ccccc23)c1`, which AC50 is on record?
Answer: The AC50 was 15.8 µM [falling, single point].

Question: For `O=C(CNS(=O)(=O)c1ccc(Br)s1)N1CCC(N2CCCCC2)CC1`, which AC50 is on record?
Answer: The AC50 was 0.251 µM [falling, partial curve].

Question: For `CC(=O)C1=C(C)NC(SCC(=O)c2ccc(Cl)c(Cl)c2)=C(C#N)C1c1ccco1` (stereo not drawn), which AC50 is on record?
Answer: The AC50 was 2 µM [rising, full curve].

Question: Which AC50 does the source give for `Cc1nc2cnc(Oc3ccccc3)nc2n(CCc2ccccc2)c1=O` here?
Answer: The AC50 was 15.8 µM [rising, partial curve].

Question: For `O=C(Nc1nnc(CCc2ccccc2)s1)C1CCCO1` (stereo not drawn), which AC50 is on record?
Answer: Its AC50 is 15.8 µM [rising, single point].

Question: With `Cc1ccccc1CS(=O)(=O)Cc1ccc(C(=O)NCc2ccco2)o1` as the compound, how does the AC50 read?
Answer: The AC50 was 0.126 µM [falling, full curve].

Question: With `O=C(Nc1cccnc1)c1cc(-c2ccc3c(c2)OCO3)on1` as the compound, how does the AC50 read?
Answer: The AC50 was 5.01 µM [rising, single point].

Question: With `O=c1[nH]c2c(s1)C(c1ccco1)C1C3CCC(C3)C1S2` (stereo not drawn) as the compound, how does the AC50 read?
Answer: Its AC50 is 12.6 µM [rising, partial curve].

Question: For `COc1cccc2[nH]c3c(N4CCCCC4)ncnc3c12`, which AC50 is on record?
Answer: Its AC50 is 12.6 µM [rising, partial curve].

Question: For `CCOCC(=O)Nc1sc2c(c1C(=O)OCC)CCCC2`, which AC50 is on record?
Answer: The AC50 was 10 µM [rising, partial curve].

Question: For `CCOC(=O)c1c(C)oc2cc(Br)c(OC(C)C(=O)OCC)cc12` (stereo not drawn), which AC50 is on record?
Answer: The AC50 was 15.8 µM [rising, single point].

Question: Which AC50 does the source give for `CCCCN(C(=O)c1ccco1)c1nnc(-c2cc(OC)c(OC)c(OC)c2)s1` here?
Answer: The AC50 was 2.51 µM [rising, full curve].

Question: For `O=C(O)CCCc1nc(-c2ccccc2)no1`, which AC50 is on record?
Answer: The AC50 was 0.0794 µM [falling, single point].

Question: Which AC50 does the source give for `CCS(=O)(=O)N1CCC(C(=O)N2CCOCC2)CC1` here?
Answer: Its AC50 is 0.00501 µM [falling, full curve, poor fit].

Question: For `Cc1cnn(-c2ccc3nnc(-c4ccc(Br)cc4)n3n2)c1`, which AC50 is on record?
Answer: The AC50 was 6.31 µM [rising, partial curve].

Question: With `CS(=O)(=O)Nc1cccc(-c2nc(Nc3ccccc3)c3ccccc3n2)c1` as the compound, how does the AC50 read?
Answer: Its AC50 is 0.794 µM [rising, full curve].

Question: For `CCCc1cc(C(=O)Nc2sc(C(C)=O)c(C)c2C(=O)OCC)no1`, which AC50 is on record?
Answer: The AC50 was 0.631 µM [rising, full curve].

Question: Which AC50 does the source give for `Cc1nc(NCc2ccco2)nc2c1C(=O)CC(C)C2` (stereo not drawn) here?
Answer: Its AC50 is 15.8 µM [rising, partial curve].

Question: With `C=C(C)Cn1c(SCC#N)nc2ccccc2c1=O` as the compound, how does the AC50 read?
Answer: Its AC50 is 10 µM [rising, partial curve].

Question: Which AC50 does the source give for `O=C(NCc1cccs1)C(NS(=O)(=O)c1cccc2nsnc12)c1ccccc1` (stereo not drawn) here?
Answer: Its AC50 is 5.01 µM [rising, single point].

Question: For `CC(=O)CSc1ncnc2c1oc1ccccc12`, which AC50 is on record?
Answer: Its AC50 is 5.01 µM [rising, partial curve].

Question: For `CCOc1cc2[nH]c(=O)n(CC3CCC(C(=O)NC4CCCCC4)CC3)c(=O)c2cc1OCC` (stereo not drawn), which AC50 is on record?
Answer: Its AC50 is 0.0794 µM [falling, full curve, poor fit].

Question: For `COc1ccc(CCNC(=O)CSc2nc(N)c(C#N)c(-c3cccs3)c2C#N)cc1OC`, which AC50 is on record?
Answer: The AC50 was 1.26 µM [rising, full curve].

Question: With `CCN(CC(=O)Nc1ccc2c(c1)OCCO2)Cc1cc(=O)oc2c(C)c(C)ccc12` as the compound, how does the AC50 read?
Answer: Its AC50 is 10 µM [rising, partial curve].

Question: Which AC50 does the source give for `Cc1cccc(NC(=O)c2sc3nc(-c4ccc(F)cc4)cn3c2C)n1` here?
Answer: Its AC50 is 3.16 µM [rising, partial curve].

Question: With `CC1CN(S(=O)(=O)c2ccc(NC(=O)CCN3C(=O)c4ccccc4C3=O)cc2)CC(C)O1` (stereo not drawn) as the compound, how does the AC50 read?
Answer: The AC50 was 0.0316 µM [falling, full curve, poor fit].

Question: Which AC50 does the source give for `COc1ccc(NC(=O)CN2CCC(C(N)=O)CC2)cc1` here?
Answer: Its AC50 is 0.0794 µM [falling, partial curve, poor fit].

Question: For `COC(=O)C1=C(C)N(c2ccc(F)c(Cl)c2)C(=O)C1`, which AC50 is on record?
Answer: The AC50 was 3.16 µM [falling, partial curve].

Question: Which AC50 does the source give for `Cc1cccc2cc3c(NC(=O)c4ccccn4)nn(C)c3nc12` here?
Answer: Its AC50 is 1.26 µM [rising, partial curve].
